Results taken from the supplement of paper PMC10849652.
The list shows a part of the results.

The chains behind the UniProt entries cited, without tags or fusion partners. Where a name states a change or a piece, a line headed by the entry shows the natural chain unless it says otherwise.
UniProt Q9NUP1: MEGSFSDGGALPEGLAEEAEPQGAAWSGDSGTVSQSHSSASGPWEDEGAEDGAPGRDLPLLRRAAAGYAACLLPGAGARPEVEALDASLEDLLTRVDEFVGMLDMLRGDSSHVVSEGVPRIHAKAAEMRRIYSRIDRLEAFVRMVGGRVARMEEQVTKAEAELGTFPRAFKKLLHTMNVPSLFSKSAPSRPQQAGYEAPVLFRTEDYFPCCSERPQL
UniProt Q99700, whole entry, looked up: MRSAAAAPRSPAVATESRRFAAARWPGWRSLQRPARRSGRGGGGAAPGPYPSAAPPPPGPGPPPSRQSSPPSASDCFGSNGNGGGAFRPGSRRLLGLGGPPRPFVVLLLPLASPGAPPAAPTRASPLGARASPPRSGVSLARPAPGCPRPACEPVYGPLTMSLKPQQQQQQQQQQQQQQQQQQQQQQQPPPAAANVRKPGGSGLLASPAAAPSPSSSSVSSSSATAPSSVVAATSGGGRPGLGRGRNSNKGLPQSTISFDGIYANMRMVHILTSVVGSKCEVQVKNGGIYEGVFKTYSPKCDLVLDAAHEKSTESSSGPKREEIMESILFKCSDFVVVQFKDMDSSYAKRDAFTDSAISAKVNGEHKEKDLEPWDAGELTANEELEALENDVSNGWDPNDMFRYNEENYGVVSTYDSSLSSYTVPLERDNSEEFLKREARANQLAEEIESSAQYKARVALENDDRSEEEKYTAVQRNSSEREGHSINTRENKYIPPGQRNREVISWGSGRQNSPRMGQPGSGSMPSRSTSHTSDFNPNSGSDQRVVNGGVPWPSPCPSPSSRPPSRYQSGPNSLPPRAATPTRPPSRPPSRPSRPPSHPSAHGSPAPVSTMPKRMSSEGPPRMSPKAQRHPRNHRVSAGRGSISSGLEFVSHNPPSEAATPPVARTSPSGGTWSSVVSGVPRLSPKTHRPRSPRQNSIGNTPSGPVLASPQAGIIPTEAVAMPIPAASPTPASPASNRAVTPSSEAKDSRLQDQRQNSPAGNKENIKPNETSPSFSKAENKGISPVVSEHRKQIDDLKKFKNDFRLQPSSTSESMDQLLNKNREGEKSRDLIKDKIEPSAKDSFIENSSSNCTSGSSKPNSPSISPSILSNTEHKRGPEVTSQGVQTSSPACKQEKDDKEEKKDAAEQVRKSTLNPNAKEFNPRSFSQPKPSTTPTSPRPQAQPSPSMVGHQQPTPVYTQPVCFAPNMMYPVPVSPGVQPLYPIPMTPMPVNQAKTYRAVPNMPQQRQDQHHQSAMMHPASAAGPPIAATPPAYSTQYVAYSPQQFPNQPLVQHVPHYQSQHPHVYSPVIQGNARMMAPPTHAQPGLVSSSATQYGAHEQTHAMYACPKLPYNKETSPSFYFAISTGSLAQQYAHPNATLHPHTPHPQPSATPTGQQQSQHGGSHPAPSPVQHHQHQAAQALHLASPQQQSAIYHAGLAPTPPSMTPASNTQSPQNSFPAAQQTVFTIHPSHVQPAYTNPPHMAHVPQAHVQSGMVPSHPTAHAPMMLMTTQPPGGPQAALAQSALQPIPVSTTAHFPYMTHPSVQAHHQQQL
UniProt O60512: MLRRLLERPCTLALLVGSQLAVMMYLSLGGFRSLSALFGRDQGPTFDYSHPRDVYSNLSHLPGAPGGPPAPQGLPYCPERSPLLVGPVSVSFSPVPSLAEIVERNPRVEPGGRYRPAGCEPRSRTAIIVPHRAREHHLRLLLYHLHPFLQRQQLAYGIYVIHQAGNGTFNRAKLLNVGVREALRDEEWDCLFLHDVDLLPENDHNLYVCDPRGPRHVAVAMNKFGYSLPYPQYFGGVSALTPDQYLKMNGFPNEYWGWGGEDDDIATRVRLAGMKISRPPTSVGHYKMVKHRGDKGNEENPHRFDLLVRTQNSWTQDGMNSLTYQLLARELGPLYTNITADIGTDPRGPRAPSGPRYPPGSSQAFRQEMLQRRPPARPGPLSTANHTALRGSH
UniProt Q9NWV8, whole entry, looked up: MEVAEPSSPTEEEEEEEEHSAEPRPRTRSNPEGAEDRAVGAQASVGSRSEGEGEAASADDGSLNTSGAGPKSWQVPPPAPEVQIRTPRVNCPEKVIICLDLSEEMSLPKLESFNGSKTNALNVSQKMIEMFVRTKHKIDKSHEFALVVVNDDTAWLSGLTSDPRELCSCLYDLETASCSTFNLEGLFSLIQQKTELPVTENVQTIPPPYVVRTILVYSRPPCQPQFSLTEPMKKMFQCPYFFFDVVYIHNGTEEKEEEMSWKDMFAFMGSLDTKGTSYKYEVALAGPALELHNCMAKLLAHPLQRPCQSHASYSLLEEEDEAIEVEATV
UniProt Q07812, whole entry, looked up: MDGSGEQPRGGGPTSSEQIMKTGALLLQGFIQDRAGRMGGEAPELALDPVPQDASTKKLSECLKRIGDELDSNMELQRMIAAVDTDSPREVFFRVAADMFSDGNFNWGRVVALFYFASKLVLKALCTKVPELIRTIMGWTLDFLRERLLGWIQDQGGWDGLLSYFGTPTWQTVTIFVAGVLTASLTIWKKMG
UniProt Q9H3K6: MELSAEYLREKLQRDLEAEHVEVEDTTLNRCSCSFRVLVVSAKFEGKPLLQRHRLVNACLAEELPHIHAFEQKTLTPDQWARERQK
UniProt Q13490, whole entry, looked up: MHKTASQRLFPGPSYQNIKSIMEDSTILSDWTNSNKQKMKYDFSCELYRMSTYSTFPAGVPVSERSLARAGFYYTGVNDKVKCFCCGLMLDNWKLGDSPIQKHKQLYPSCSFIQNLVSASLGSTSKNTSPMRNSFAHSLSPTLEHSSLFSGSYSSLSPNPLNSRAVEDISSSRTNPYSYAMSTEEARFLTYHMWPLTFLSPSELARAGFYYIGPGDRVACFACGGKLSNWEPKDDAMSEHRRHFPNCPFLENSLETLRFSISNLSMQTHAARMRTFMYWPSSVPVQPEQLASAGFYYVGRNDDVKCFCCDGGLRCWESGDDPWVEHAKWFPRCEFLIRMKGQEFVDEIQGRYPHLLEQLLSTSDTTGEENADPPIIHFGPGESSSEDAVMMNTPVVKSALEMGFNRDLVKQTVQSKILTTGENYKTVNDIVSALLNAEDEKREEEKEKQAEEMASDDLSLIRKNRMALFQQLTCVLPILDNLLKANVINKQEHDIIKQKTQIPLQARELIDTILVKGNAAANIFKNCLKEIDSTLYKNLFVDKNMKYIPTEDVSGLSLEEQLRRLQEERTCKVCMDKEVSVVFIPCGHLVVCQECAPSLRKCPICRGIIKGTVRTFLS
UniProt Q9P281: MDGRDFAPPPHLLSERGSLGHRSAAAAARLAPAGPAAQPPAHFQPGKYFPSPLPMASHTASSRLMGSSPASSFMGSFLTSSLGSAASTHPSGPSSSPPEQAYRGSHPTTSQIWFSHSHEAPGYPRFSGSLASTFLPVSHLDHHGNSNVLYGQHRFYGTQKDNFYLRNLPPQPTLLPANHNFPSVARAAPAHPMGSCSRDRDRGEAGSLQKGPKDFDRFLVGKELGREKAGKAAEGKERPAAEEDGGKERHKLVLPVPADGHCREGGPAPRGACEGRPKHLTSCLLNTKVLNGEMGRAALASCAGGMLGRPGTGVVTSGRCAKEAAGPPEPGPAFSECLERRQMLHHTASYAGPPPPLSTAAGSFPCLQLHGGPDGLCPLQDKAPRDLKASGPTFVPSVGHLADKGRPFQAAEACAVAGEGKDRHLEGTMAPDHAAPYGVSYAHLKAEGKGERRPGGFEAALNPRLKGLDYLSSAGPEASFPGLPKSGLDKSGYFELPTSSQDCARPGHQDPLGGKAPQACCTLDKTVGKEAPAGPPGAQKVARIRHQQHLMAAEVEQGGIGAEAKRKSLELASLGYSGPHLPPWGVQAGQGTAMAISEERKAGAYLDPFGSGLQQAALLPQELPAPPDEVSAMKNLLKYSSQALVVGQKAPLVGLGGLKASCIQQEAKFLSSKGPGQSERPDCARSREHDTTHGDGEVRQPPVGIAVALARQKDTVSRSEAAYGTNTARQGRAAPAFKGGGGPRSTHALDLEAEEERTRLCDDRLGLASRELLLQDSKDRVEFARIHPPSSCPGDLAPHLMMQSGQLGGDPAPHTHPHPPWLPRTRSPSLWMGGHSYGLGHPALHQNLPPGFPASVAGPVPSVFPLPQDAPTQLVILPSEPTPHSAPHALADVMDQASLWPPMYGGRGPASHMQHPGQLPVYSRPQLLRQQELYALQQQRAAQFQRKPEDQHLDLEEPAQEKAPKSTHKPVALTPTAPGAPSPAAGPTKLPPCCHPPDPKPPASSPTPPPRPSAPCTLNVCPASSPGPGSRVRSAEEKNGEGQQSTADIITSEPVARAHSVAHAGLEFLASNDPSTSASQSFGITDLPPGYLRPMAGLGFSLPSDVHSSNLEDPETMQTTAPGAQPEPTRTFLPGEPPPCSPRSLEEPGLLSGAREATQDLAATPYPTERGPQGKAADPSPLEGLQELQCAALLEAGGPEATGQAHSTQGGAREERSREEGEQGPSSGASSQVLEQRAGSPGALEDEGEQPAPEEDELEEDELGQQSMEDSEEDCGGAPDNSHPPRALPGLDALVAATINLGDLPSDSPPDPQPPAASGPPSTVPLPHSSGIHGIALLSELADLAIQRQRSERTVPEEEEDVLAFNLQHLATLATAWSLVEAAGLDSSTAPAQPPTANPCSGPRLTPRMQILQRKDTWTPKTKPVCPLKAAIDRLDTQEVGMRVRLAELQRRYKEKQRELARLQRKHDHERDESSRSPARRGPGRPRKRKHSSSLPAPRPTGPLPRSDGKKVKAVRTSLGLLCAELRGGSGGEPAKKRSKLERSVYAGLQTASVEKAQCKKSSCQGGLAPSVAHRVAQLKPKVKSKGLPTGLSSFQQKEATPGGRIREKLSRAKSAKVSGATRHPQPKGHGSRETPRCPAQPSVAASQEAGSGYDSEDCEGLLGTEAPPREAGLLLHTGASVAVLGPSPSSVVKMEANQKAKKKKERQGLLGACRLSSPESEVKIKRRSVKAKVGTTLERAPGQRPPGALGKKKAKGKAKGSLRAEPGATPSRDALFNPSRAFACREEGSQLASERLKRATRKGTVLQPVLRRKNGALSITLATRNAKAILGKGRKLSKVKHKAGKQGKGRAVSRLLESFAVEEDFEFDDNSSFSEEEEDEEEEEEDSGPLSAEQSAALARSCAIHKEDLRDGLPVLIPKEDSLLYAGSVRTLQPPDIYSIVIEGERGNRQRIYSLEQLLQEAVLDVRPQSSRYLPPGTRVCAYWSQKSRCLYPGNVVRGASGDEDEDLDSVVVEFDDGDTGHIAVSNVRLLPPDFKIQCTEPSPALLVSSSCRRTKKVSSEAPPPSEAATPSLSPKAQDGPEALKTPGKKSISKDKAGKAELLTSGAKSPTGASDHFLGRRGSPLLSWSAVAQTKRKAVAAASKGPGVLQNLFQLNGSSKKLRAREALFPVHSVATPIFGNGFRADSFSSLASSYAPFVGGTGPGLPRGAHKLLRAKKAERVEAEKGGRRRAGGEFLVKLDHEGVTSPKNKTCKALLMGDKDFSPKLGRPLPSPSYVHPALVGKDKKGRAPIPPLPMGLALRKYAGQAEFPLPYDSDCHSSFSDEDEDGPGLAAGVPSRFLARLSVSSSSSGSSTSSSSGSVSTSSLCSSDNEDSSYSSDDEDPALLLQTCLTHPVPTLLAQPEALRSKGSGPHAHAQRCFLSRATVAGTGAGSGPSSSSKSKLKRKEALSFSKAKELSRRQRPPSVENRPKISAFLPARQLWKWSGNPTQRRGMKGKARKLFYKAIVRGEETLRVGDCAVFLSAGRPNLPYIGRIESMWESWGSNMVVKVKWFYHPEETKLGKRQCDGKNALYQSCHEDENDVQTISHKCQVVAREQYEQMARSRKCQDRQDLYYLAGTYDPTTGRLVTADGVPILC
UniProt O15155: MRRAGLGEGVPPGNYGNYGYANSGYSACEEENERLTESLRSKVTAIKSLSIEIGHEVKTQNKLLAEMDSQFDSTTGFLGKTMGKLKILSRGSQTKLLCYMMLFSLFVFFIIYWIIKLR
UniProt Q8TDH9: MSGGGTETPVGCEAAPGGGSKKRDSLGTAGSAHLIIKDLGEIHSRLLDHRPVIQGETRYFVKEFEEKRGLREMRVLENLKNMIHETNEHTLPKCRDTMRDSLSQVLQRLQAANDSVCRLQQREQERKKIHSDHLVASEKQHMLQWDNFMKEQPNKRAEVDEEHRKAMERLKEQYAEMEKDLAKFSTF
UniProt O94766: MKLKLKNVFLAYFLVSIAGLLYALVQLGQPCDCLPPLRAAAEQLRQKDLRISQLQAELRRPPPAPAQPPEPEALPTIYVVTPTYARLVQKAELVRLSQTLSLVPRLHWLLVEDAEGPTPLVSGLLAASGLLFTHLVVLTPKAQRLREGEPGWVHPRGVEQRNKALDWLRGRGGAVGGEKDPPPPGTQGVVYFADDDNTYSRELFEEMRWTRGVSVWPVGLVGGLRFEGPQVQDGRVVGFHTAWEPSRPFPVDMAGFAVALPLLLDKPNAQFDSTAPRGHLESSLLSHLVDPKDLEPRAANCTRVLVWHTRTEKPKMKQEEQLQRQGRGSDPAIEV

Compound: C[C@@H](Oc1cc(-c2cnn(C3CCNCC3)c2)cnc1N)c1c(Cl)ccc(F)c1Cl [crizotinib]
Assay: log2 fold change, soluble protein after heating vs DMSO (PISA); higher = thermal stabilisation; K562 cells, 10 uM, 30 min; active = over 0.2 and 3.5 SD of the protein, either way, in both replicates (recomputed)
In short: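 K562 cells at 2×10^6 cells/mL were treated with 10 μM compound for 30 min. Aliquots were heated for 3 min across 48°C-58°C, pooled, and extracted in PBS with 0.5% NP-40 at 4°C; soluble protein was the supernatant after 21,000xg for 90 min. Soluble protein was quantified by TMTpro 16plex LC-MS/MS with channel sums equalised, and reported as log2 fold change in thermal stability against DMSO controls, with values from duplicates.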

log2 fold change, inactive:
BRAT1 (UniProt Q6PJG6) -0.047
BLOC1S4 (UniProt Q9NUP1) 0.028
ATXN2 (UniProt Q99700) -0.006
BCL2L1 (UniProt Q07817) 0.041
ATRIP (UniProt Q8WXE1) 0.007
B4GALT3 (UniProt O60512) -0.131
BLVRA (UniProt P53004) -0.171
BICD2 isoform 2 (UniProt Q8TD16) 0.136
BABAM1 (UniProt Q9NWV8) 0.056
BAX isoform 2 (UniProt Q07812) 0.017
BCKDHA (UniProt P12694) -0.13
BNIP2 (UniProt J3KN59) 0.207
BOLA2 (UniProt Q9H3K6) 0.143
BIRC2 (UniProt Q13490) 0.033
BAG3 (UniProt O95817) -0.013
BAHCC1 (UniProt Q9P281) -0.004
BMS1 (UniProt Q14692) -0.033
BCKDK (UniProt O14874) -0.046
BET1 (UniProt O15155) -0.02
BPNT1 (UniProt O95861) 0.078
BLOC1S5 (UniProt Q8TDH9) -0.018
B3GAT3 (UniProt O94766) 0.026
BIRC6 (UniProt Q9NR09) -0.06

Already shown: entries from further up.
log2 fold change, inactive:
B3GAT3 (UniProt O94766) 0.026
BIRC6 (UniProt Q9NR09) -0.06
